Patent publication US20220073563A1
No constants are given. Whether binding was seen depends on the method and setting. Some binding calls cover weakened binding; strength is not graded here.

Chains of the proteins cited; added tags and fusions are not shown. Lines headed by an entry give the natural chain unless they say otherwise; changes in a name come on top. A line that says so, or that is headed by a name, gives the form on record, which may keep a tag or linker.
VEGF (P15692, form named): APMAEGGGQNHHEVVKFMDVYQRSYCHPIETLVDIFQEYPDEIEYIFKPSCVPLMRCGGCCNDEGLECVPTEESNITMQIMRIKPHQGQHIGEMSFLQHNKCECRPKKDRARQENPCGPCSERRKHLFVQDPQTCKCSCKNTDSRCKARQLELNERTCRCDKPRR

Molecular target: VEGF (UniProt P15692)
Test: BLI (Octet-QK), biotin-labeled VEGF on SA probe

binding: binds
B1: ankyrin repeat protein binding to VEGF (designed binder)
chain: GSDLDKKLLEAARAGQDDEVRILMANGADVNARDSTGWTPLHLAAPWGHPEIVEVLLKNGADVNAADFQGWTPLHLAAAVGHLEIVEVLLKYGADVNAQDKFGKTAFDISIDNGNEDLAEILQKAA
